Values of other authors as cited in patent US20210319872A1, “DRUG AND DEVICE COMBINATION PRODUCTS WITH IMPROVED SAFETY AND EFFICACY PROFILES” (priority 2016, published 2021).

System: subjects
Settings: 10-, 15-, and 20-mg oral dose, 4 subjects, 24-hour period, pilot study, FIG. 31 inset

**Q.** Which “area under the effect curve (AUEC) for pupil response across the 3 doses” value does the source give for `COc1ccc2c3c1O[C@H]1C(=O)CC[C@@]4(O)[C@@H](C2)N(C)CC[C@]314` [oxycodone, reference compound] here?
**A.** linearity
